No constants are given. Whether binding was seen depends on the method and setting. For part of these data: Binding seen in cells or lysates may run through a third protein. Some results given as binding are weak or reduced against the parent protein; the word gives no strength. Where a sequence is shown, tags or fusion partners need not be part of it.

By UniProt entry, the sequences of proteins in these tests, tags left out.
UniProt O75925: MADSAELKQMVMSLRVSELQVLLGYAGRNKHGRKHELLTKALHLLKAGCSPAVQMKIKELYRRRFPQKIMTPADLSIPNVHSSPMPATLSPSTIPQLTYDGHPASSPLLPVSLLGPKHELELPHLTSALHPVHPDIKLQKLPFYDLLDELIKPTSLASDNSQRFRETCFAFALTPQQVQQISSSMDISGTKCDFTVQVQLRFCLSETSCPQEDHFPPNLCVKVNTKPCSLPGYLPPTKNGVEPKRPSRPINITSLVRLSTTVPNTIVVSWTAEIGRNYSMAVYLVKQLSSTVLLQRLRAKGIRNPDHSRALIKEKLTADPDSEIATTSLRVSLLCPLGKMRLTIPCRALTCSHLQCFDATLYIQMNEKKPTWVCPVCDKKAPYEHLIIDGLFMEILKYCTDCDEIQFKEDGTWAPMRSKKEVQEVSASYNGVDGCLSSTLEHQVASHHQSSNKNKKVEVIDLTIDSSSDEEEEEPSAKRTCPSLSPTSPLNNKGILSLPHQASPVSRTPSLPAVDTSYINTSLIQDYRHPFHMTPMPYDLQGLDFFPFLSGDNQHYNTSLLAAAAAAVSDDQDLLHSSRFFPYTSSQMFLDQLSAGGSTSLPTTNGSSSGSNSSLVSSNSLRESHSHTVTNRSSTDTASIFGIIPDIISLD
UniProt P63279: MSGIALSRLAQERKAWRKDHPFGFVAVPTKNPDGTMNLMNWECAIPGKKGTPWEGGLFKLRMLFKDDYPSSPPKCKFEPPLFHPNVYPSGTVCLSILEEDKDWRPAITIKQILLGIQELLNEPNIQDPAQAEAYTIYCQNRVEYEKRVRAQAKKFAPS

For one assay, the target named is T1, myc-FOXL2 (human) (UniProt P58012).
T1 sequence: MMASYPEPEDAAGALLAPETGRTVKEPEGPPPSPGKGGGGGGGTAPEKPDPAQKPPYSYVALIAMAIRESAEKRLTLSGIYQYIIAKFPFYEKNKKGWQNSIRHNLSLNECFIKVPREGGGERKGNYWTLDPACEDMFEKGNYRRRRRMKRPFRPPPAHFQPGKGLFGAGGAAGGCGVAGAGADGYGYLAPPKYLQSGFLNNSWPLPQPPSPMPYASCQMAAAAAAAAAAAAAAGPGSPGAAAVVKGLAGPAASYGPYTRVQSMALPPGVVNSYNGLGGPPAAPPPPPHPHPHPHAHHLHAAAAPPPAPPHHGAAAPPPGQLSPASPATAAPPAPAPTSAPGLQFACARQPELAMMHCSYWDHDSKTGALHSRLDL
Briefly: co-IP; COS-7 cells co-transfected; lysates in modified RIPA buffer with NEM, diluted 4-fold in co-immunoprecipitation buffer; anti-myc agarose conjugate overnight at 4°C; Western blot with anti-FOXL2, anti-PIAS1, anti-UBC9 and anti-tag antibodies.

Assay [1] has as its target T2, FOXL2 (forkhead transcription factor), full length, yeast two-hybrid fusion (human) (UniProt P58012).
T2 sequence: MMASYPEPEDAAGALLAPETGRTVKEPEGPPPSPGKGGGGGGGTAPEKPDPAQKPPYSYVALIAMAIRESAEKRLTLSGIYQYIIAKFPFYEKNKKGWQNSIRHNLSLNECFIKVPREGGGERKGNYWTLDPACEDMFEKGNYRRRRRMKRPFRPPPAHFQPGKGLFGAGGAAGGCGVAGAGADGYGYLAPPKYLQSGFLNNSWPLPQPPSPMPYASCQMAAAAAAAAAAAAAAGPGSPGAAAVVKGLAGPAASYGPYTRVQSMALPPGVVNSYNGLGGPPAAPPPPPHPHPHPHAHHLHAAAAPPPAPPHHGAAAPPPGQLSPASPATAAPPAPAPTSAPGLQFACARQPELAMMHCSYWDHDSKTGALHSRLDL
In words: two-hybrid; co-transformation of AH109 yeast with full-length FOXL2 in pGBKT7 and full-length PIAS1 or UBC9 in pGADT7, and with the vectors switched; strength by liquid beta-galactosidase assays (data not shown).

Assay [2] concerns the target PIAS1, full length, yeast two-hybrid fusion (human) (UniProt O75925). The assay is described as above.
The target in assay [3] is UBC9, full length, yeast two-hybrid fusion (human) (UniProt P63279). Described as above.
The next assay deals with myc-PIAS1 (human) (UniProt O75925). In words: co-IP; COS-7 cells co-transfected; lysates in modified RIPA buffer with NEM, diluted 4-fold in co-immunoprecipitation buffer; anti-myc agarose conjugate overnight at 4°C; Western blot with anti-FOXL2, anti-PIAS1, anti-UBC9 and anti-tag antibodies.

In the case of “HA-UBC9 (from UniProt P63279 1-158) (enzyme)”, the binding entry with myc-FOXL2 (human) is recorded as “binds”.
Regarding “PIAS1, full length, yeast two-hybrid fusion (from UniProt O75925 1-651)”, the binding entry in assay [1] was “binds”.
Still for that read-out and setting: the entry for “UBC9, full length, yeast two-hybrid fusion (from UniProt P63279 1-158) (enzyme)” is “binds”.

B1: FOXL2 (forkhead transcription factor), full length, yeast two-hybrid fusion (protein, UniProt P58012 1-376)
chain: MMASYPEPEDAAGALLAPETGRTVKEPEGPPPSPGKGGGGGGGTAPEKPDPAQKPPYSYVALIAMAIRESAEKRLTLSGIYQYIIAKFPFYEKNKKGWQNSIRHNLSLNECFIKVPREGGGERKGNYWTLDPACEDMFEKGNYRRRRRMKRPFRPPPAHFQPGKGLFGAGGAAGGCGVAGAGADGYGYLAPPKYLQSGFLNNSWPLPQPPSPMPYASCQMAAAAAAAAAAAAAAGPGSPGAAAVVKGLAGPAASYGPYTRVQSMALPPGVVNSYNGLGGPPAAPPPPPHPHPHPHAHHLHAAAAPPPAPPHHGAAAPPPGQLSPASPATAAPPAPAPTSAPGLQFACARQPELAMMHCSYWDHDSKTGALHSRLDL
Take B1: the binding entry in assay [2] and in assay [3] was “binds” each time.

B2: HA-FOXL2 (protein, UniProt P58012 1-376)
chain: MMASYPEPEDAAGALLAPETGRTVKEPEGPPPSPGKGGGGGGGTAPEKPDPAQKPPYSYVALIAMAIRESAEKRLTLSGIYQYIIAKFPFYEKNKKGWQNSIRHNLSLNECFIKVPREGGGERKGNYWTLDPACEDMFEKGNYRRRRRMKRPFRPPPAHFQPGKGLFGAGGAAGGCGVAGAGADGYGYLAPPKYLQSGFLNNSWPLPQPPSPMPYASCQMAAAAAAAAAAAAAAGPGSPGAAAVVKGLAGPAASYGPYTRVQSMALPPGVVNSYNGLGGPPAAPPPPPHPHPHPHAHHLHAAAAPPPAPPHHGAAAPPPGQLSPASPATAAPPAPAPTSAPGLQFACARQPELAMMHCSYWDHDSKTGALHSRLDL
For the molecule B2, in the assay with myc-PIAS1 (human), the binding result is recorded as “binds”.

These data come from article PMC2830456.
